This is one part of the list. Potency and affinity values are given separately. The source made no clear call on entries shown without one.
Experiments:
[1] = Polyglutamine toxicity reduction dose response, whole organism Drosophila SCA1 model (AID 1595); conditions: at 1 µM, stronger effect = higher value
[2] = PubChem AID 1597; conditions: Drosophila SCA1 polyglutamine model, at 1 µM, stronger effect = higher value

| SMILES | suppression of toxicity [1] | suppression of toxicity [2] |
| --- | --- | --- |
| NC[C@@H]1O[C@H](O[C@H]2[C@@H](O)[C@H](O[C@@H]3[C@@H](O)[C@H](N)C[C@H](N)[C@H]3O[C@@H]3O[C@H](CO)[C@@H](O)C[C@H]3N)O[C@@H]2CO)[C@H](N)[C@@H](O)[C@@H]1O[C@H]1O[C@H](CO)[C@@H](O)[C@H](O)[C@@H]1O | 0 | 3.58 |
| COc1ccccc1OCC(O)COC(N)=O (stereo not drawn) | 1.43 | 0 |
| Cn1nnnc1SCC1=C(C(=O)O)N2C(=O)C(NC(=O)C(OC=O)c3ccccc3)C2SC1 (stereo not drawn) | 0 | 12.9 |
| Cn1c(=O)c2c(ncn2CC(O)CO)n(C)c1=O (stereo not drawn) | 8.57 | 8.57 |
| CCCCOc1ccc(C(=O)CCN2CCCCC2)cc1 | 0 | 3.57 |
| CC(C)(S)C(N)C(=O)O (stereo not drawn) | 2.86 | 4.29 |
| CC(C)NCC(O)c1ccc2ccccc2c1 (stereo not drawn) | 18.6 | 22.9 |
| Nc1ccc(S(=O)(=O)Nc2nccs2)cc1 | 1.43 | 1.43 |
| Nc1nc2c(ncn2COCCO)c(=O)[nH]1 | 4.29 | 7.86 |
| Cc1noc(NS(=O)(=O)c2ccc(N)cc2)c1C | 21.4 | 0.715 |
| COc1ccc(Cl)cc1C(=O)NCCc1ccc(S(=O)(=O)NC(=O)NC2CCCCC2)cc1 | 2.85 | 3.58 |
| CCCCCCOc1ccccc1C(N)=O | 10 | 9.29 |
| COc1ccc(C[C@H](N)C(=O)N[C@@H]2[C@@H](CO)OC(n3cnc4c(N(C)C)ncnc43)[C@@H]2O)cc1 (stereo partly drawn) | 7.14 | 7.86 |
| Cc1ccc(Cl)c(Nc2ccccc2C(=O)O)c1Cl | 0 | 10.7 |
| O=C(O)c1cc2cc(Cc3cccnc3)ccc2o1 | 5.71 | 5 |
| Cc1ccnc(NS(=O)(=O)c2ccc(N)cc2)n1 | 10 | 3.58 |
| Cc1cc(NC(=O)C2=C(O)c3ccccc3S(=O)(=O)N2C)no1 | 0 | 0.715 |
| COc1ccc2cc([C@H](C)C(=O)O)ccc2c1 | 0 | 10 |
| CN1CCN(C2=Nc3cc(Cl)ccc3Nc3ccccc32)CC1 | 2.85 | 9.29 |
| Cc1cc(O)cc(C)c1Cl | 7.14 | 5 |
| CCN(CCO)CCCC(C)Nc1ccnc2cc(Cl)ccc12 (stereo not drawn) | 0 | 0.715 |
| CCCCNc1ccc(C(=O)OCCN(C)C)cc1 | 5.71 | 2.15 |
| CN(C)CCOC(c1ccc(Cl)cc1)c1ccccn1 (stereo not drawn) | 1.43 | 5.71 |
| OC(CCN1CCCCC1)(c1ccccc1)C1CCCCC1 (stereo not drawn) | 4.29 | 13.6 |
| NC(N)=O | 7.14 | 8.57 |
| C=C[C@H]1CN2CC[C@H]1C[C@@H]2[C@H](O)c1ccnc2ccc(OC)cc12 | 1.43 | 2.86 |
| CCCCOC(=O)c1ccc(N)cc1 | 0 | 0.715 |

| SMILES | suppression of toxicity [1] | suppression of toxicity [2] |
| --- | --- | --- |
| CC1OC1P(=O)(O)O (stereo not drawn) | 2.85 | 2.86 |
| NC(=O)c1ccc[n+]([C@@H]2O[C@H](COP(=O)([O-])OP(=O)(O)OC[C@H]3O[C@@H](n4cnc5c(N)ncnc54)[C@H](OP(=O)(O)O)[C@@H]3O)[C@@H](O)[C@H]2O)c1 | 0 | 2.15 |
| O=C(O)c1ccccc1Nc1cccc(C(F)(F)F)c1 | 0 | 5 |
| CCOC(=O)c1ccc(N)cc1 | 14.3 | 15.7 |
| Cc1ccccc1OCC(O)CO (stereo not drawn) | 0 | 3.57 |
| CCCNC(C)C(=O)Nc1ccccc1C (stereo not drawn) | 1.43 | 2.15 |
| CCOc1ccccc1OCC1CNCCO1 (stereo not drawn) | 0 | 0.715 |
| CN(C(=O)CN(CCO)CC(=O)N(C)C(C)(C)Cc1ccccc1)C(C)(C)Cc1ccccc1 | 2.86 | 2.15 |
| Nc1ccc(C(=O)NCC(=O)O)cc1 | 4.29 | 10 |
| CC(N)C(=O)NC(Cc1ccccc1)C(=O)O (stereo not drawn) | 0 | 0 |
| NS(=O)(=O)c1cc2c(cc1Cl)NCNS2(=O)=O | 10 | 7.86 |
| CCCCC(=O)OC1(C(=O)CO)C(C)CC2C3CCC4=CC(=O)C=CC4(C)[C@@]3(F)[C@@H](O)CC21C (stereo partly drawn) | 4.29 | 7.14 |
| CCCC(CCC)C(=O)O | 0 | 0.715 |
| Cc1onc(-c2ccccc2)c1C(=O)NC1C(=O)N2[C@@H]1SC(C)(C)[C@@H]2C(=O)O (stereo partly drawn) | 1.43 | 0.715 |
| CCCCCC(C)N (stereo not drawn) | 2.85 | 2.15 |
| CC1=C(C(=O)O)N2C(=O)[C@@H](NC(=O)[C@H](N)c3ccc(O)cc3)[C@H]2SC1 | 25.7 | 2.86 |
| Cc1c(C(N)=O)cc([N+](=O)[O-])cc1[N+](=O)[O-] | 4.29 | 8.57 |
| CSc1ccc2c(c1)N(CCC1CCCCN1C)c1ccccc1S2 (stereo not drawn) | 7.14 | 13.6 |
| CCCCC1(COC(=O)CCC(=O)O)C(=O)N(c2ccccc2)N(c2ccccc2)C1=O | 8.57 | 20.7 |
| Cc1ccccc1N1C(=O)c2cc(S(N)(=O)=O)c(Cl)cc2NC1C (stereo not drawn) | 0 | 1.43 |
| CC(NCCC(c1ccccc1)c1ccccc1)c1ccccc1 (stereo not drawn) | 1.43 | 7.86 |
| CC(=O)N(O)CCCCCNC(=O)CCC(=O)N(O)CCCCCNC(=O)CCC(=O)N(O)CCCCCN | 2.86 | 10 |
| NC[C@H](O)c1ccc(O)c(O)c1 | 0 | 3.57 |
| O=C(O)c1cc([N+](=O)[O-])ccc1NCCCc1ccccc1 | 0 | 7.14 |
| COc1ccc(CCN2CCC(Nc3nc4ccccc4n3Cc3ccc(F)cc3)CC2)cc1 | 4.29 | 6.43 |
| CCCN1C[C@H](CSC)C[C@@H]2c3cccc4[nH]cc(c34)C[C@H]21 | 0 | 2.85 |
| NS(=O)(=O)c1cc2c(cc1Cl)NC=NS2(=O)=O | 1.43 | 1.43 |

Full records, quoted from the list.
Nc1ccc(C(=O)NCC(=O)O)cc1 as listed: suppression of toxicity [1]: 4.29; suppression of toxicity [2]: 10
NS(=O)(=O)c1cc2c(cc1Cl)NCNS2(=O)=O as listed: suppression of toxicity [1]: 10; suppression of toxicity [2]: 7.86

Continuation.

| SMILES | suppression of toxicity [1] | suppression of toxicity [2] |
| --- | --- | --- |
| CC(=O)Nc1ccc(OC(=O)c2ccccc2O)cc1 | 2.86 | 2.86 |
| CC(C)[C@@H](C)/C=C/[C@@H](C)C1CC[C@H]2/C(=C/C=C3\C[C@@H](O)CC[C@@H]3C)CCC[C@]12C (stereo partly drawn) | 0 | 0.715 |
| CC(=O)NCCCCCC(=O)O | 0 | 6.43 |
| NC(=O)c1ccccc1O | 2.85 | 2.85 |
| Nc1ncnc2c1ncn2[C@@H]1O[C@H](CO)[C@@H](O)[C@@H]1O | 1.43 | 11.4 |
| CC(C)(C)NCC(O)COc1cccc2c1C[C@H](O)[C@H](O)C2 (stereo partly drawn) | 4.29 | 7.86 |
| OC[C@H]1O[C@@H](O[C@@H]2[C@@H](CO)O[C@](O)(CO)[C@H]2O)[C@H](O)[C@@H](O)[C@H]1O | 7.14 | 16.4 |
| Nc1ncn([C@@H]2O[C@H](CO)[C@@H](O)[C@H]2O)c(=O)n1 | 7.14 | 10 |
| Clc1ccccc1C(c1ccccc1)(c1ccccc1)n1ccnc1 | 1.43 | 2.15 |
| C=C1C(=O)O[C@@H]2C3OC3(C)CC/C=C(\C)CC[C@@H]12 (stereo partly drawn) | 7.14 | 0.715 |
| O=C1c2ccccc2C(=O)C1c1ccccc1 | 4.29 | 12.1 |
| NNc1nncc2ccccc12 | 1.43 | 2.15 |
| CCCc1cc(=O)[nH]c(=S)[nH]1 | 0 | 0.715 |
| CO[C@@H]1[C@@H](OC(N)=O)[C@@H](O)[C@H](Oc2ccc3c(O)c(NC(=O)c4ccc(O)c(CC=C(C)C)c4)c(=O)oc3c2C)OC1(C)C | 0 | 2.85 |
| Fc1ccc(C(c2ccc(F)cc2)N2CCN(C/C=C/c3ccccc3)CC2)cc1 | 8.57 | 12.1 |
| CCN(CCCc1ccccc1)CCCc1ccccc1 (tested in a mixture with another compound) | 1.43 | 2.15 |
| CN(Cc1cc(Br)cc(Br)c1N)C1CCCCC1 | 0 | 2.15 |
| O=C(O)CCCCC1CCSS1 (stereo not drawn) | 1.43 | 2.15 |
| C[N+]1(C)CCCC(OC(=O)C(O)(c2ccccc2)c2ccccc2)C1 (stereo not drawn) | 0 | 3.58 |
| CC12CC3CC(C)(C1)CC(N)(C3)C2 | 5.71 | 12.1 |
| CN1CCC(OC(c2ccccc2)c2ccccc2)CC1 | 0 | 3.58 |
| CCC(=O)c1c(O)cc(O)cc1O | 4.29 | 0.715 |
| CCN(CC)CCOc1ccc(/C(=C(\Cl)c2ccccc2)c2ccccc2)cc1 | 0 | 0 |
| CN(C)CCOC(C)(c1ccccc1)c1ccccn1 (stereo not drawn) | 1.43 | 3.58 |
| Cc1cc(NS(=O)(=O)c2ccc(N)cc2)no1 | 4.29 | 8.57 |

— PubChem BioAssay
